No constants are given. Whether binding was seen depends on the method and setting. For some assays here: Binding can be weak; no strength is given. Where a sequence is shown, tags or fusion partners need not be part of it. Blank lines part the entries; values can stand above or below the molecule they belong to.
Experiments:
[1] = molecular target: T1, GBD-Myc-ATG8i (Arabidopsis) (UniProt Q9LRP7); assay: two-hybrid; yeast strain Y8800; GAD-fused CaLB1 variants with GBD-ATG8i; growth on medium lacking leucine, tryptophan and histidine with or without 1 mM 3-AT
T1 sequence: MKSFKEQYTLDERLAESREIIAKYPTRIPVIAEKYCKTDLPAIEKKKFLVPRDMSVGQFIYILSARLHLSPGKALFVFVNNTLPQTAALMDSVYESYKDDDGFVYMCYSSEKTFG

Sequences of proteins named here, by UniProt entry; tags and fusion partners are left off. A change or cut given only in a name is not applied to a line headed by its entry.
UniProt F4JKL1: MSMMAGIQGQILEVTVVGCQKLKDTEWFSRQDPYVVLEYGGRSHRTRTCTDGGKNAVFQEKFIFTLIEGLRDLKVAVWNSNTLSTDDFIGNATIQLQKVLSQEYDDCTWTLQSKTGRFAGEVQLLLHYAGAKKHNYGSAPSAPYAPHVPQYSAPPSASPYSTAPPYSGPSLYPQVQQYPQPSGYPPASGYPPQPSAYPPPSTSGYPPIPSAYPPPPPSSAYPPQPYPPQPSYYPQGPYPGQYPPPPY

GST-ALIX (Arabidopsis) = molecular target: T2, GST-ALIX (Arabidopsis) (UniProt F4HXZ1); assay: pull-down; glutathione agarose loaded with GST-ALIX, incubated with 75 pmol of His-tagged proteins for 2 h at 4 °C in buffer A (50 mM Tris, 150 mM NaCl, 10% glycerol, 0.1% Triton X-100, pH 7.5); eluted with 50 mM glutathione; anti-GST and anti-His immunoblots; both purified
T2 sequence: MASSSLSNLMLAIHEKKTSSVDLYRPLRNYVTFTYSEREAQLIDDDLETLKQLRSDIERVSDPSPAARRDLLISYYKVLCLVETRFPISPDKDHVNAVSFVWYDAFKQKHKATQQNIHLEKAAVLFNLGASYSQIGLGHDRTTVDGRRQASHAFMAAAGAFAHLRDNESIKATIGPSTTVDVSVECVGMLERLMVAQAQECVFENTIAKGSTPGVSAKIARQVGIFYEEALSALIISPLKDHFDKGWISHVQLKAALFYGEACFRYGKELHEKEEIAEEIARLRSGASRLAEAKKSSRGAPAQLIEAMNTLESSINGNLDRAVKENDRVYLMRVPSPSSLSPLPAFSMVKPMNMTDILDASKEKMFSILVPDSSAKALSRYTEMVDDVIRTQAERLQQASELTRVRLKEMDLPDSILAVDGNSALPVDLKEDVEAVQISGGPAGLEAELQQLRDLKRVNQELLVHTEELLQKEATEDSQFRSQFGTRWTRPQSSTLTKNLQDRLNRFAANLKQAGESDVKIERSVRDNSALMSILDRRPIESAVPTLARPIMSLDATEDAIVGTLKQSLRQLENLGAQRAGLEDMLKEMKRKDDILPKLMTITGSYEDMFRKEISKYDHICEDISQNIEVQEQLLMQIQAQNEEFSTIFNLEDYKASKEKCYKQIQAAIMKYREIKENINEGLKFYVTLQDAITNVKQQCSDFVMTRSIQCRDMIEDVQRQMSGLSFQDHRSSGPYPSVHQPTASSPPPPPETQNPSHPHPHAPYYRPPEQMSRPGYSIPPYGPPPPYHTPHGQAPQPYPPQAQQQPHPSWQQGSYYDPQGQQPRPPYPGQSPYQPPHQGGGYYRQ

[2] = molecular target: T3, 6xHis-T7tag-ATG8a (Arabidopsis) (UniProt Q8LEM4); assay: pull-down; TALON beads loaded with 6xHis-ATG8s, incubated with 100 pmol of CaLB1-GST at 4 °C for 1 h in Talon Buffer (50 mM Na2HPO4, 300 mM NaCl, 10% glycerol, pH 7.0); eluted with 150 mM imidazole; anti-GST immunoblot; both purified
T3 sequence: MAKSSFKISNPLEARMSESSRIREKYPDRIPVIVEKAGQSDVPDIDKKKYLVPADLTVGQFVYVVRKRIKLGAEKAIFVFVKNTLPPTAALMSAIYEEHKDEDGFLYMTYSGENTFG

[3] = molecular target: T4, 6xHis-T7tag-ATG8f (Arabidopsis) (UniProt Q8VYK7); assay: as above
T4 sequence: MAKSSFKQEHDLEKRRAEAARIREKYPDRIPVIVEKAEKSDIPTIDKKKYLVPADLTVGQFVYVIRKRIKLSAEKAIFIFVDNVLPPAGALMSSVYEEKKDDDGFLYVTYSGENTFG

[4] = molecular target: T5, 6xHis-T7tag-ATG8i (Arabidopsis) (UniProt Q9LRP7); assay: as above
T5 sequence: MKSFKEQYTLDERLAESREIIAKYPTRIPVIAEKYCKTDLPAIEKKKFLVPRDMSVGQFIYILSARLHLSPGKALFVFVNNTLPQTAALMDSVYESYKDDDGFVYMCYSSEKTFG

[5] = molecular target: CaLB1-6xHis (Arabidopsis) (UniProt F4JKL1); assay: pull-down; TALON beads loaded with CaLB1-6xHis, incubated with 20 pmol of MBP-fused proteins in buffer A' (50 mM Tris, 100 mM NaCl, 10% glycerol, 0.1% Triton X-100, pH 7.5), 4 °C; eluted with 400 mM imidazole; anti-MBP and anti-His immunoblots; both purified

Molecule: GAD-HA-CaLB1[Y172A] (Arabidopsis)
binding [1]: binds

Molecule: GAD-HA-CaLB1(FL) (Arabidopsis)
binding [1]: binds

Molecule: CaLB1-GST (from UniProt F4JKL1)
binding [2]: binds | binding [3]: binds | binding [4]: binds

More lines, now with the values ahead:

binding [1]: binds
Molecule: GAD-HA-CaLB1[Y205A] (Arabidopsis)

binding (GST-ALIX (Arabidopsis)): binds
Molecule: CaLB1-6xHis (from UniProt F4JKL1)

binding [5]: no binding (tested: 20 pmol)
B1: MBP-ALIX (BRO1) (domain or fragment, UniProt F4HXZ1 5-403)
chain: SLSNLMLAIHEKKTSSVDLYRPLRNYVTFTYSEREAQLIDDDLETLKQLRSDIERVSDPSPAARRDLLISYYKVLCLVETRFPISPDKDHVNAVSFVWYDAFKQKHKATQQNIHLEKAAVLFNLGASYSQIGLGHDRTTVDGRRQASHAFMAAAGAFAHLRDNESIKATIGPSTTVDVSVECVGMLERLMVAQAQECVFENTIAKGSTPGVSAKIARQVGIFYEEALSALIISPLKDHFDKGWISHVQLKAALFYGEACFRYGKELHEKEEIAEEIARLRSGASRLAEAKKSSRGAPAQLIEAMNTLESSINGNLDRAVKENDRVYLMRVPSPSSLSPLPAFSMVKPMNMTDILDASKEKMFSILVPDSSAKALSRYTEMVDDVIRTQAERLQQASELT
